Binding data for one molecule are collected here from PMC12475165.

By UniProt entry, the sequences of proteins in these tests, tags left out.
UniProt Q05127: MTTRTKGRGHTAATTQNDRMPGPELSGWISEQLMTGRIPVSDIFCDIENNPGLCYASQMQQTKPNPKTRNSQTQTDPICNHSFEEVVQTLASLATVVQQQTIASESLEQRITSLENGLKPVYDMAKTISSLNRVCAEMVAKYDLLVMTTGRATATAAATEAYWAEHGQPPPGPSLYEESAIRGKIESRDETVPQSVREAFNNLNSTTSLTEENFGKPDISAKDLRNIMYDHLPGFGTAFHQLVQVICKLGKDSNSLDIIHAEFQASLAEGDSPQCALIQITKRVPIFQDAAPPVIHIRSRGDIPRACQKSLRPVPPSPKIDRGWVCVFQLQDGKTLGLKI

For the test, the target named is N-terminal BioID2-tagged EBOV VP35 (Ebola virus (EBOV)) (UniProt Q05127). As to the kind of experiment: proximity labelling.

Results are given in words; binding and its absence hold for the method and conditions named. Binding seen in cells or lysates may run through a third protein. A yes stands for co-enrichment or nearness to the bait. Other partners may have been found.

B1: EDC4 (endogenous, Flp-In T-Rex 293 cells) (protein, UniProt Q6P2E9 1-1401)
chain: MASCASIDIEDATQHLRDILKLDRPAGGPSAESPRPSSAYNGDLNGLLVPDPLCSGDSTSANKTGLRTMPPINLQEKQVICLSGDDSSTCIGILAKEVEIVASSDSSISSKARGSNKVKIQPVAKYDWEQKYYYGNLIAVSNSFLAYAIRAANNGSAMVRVISVSTSERTLLKGFTGSVADLAFAHLNSPQLACLDEAGNLFVWRLALVNGKIQEEILVHIRQPEGTPLNHFRRIIWCPFIPEESEDCCEESSPTVALLHEDRAEVWDLDMLRSSHSTWPVDVSQIKQGFIVVKGHSTCLSEGALSPDGTVLATASHDGYVKFWQIYIEGQDEPRCLHEWKPHDGRPLSCLLFCDNHKKQDPDVPFWRFLITGADQNRELKMWCTVSWTCLQTIRFSPDIFSSVSVPPSLKVCLDLSAEYLILSDVQRKVLYVMELLQNQEEGHACFSSISEFLLTHPVLSFGIQVVSRCRLRHTEVLPAEEENDSLGADGTHGAGAMESAAGVLIKLFCVHTKALQDVQIRFQPQLNPDVVAPLPTHTAHEDFTFGESRPELGSEGLGSAAHGSQPDLRRIVELPAPADFLSLSSETKPKLMTPDAFMTPSASLQQITASPSSSSSGSSSSSSSSSSSLTAVSAMSSTSAVDPSLTRPPEELTLSPKLQLDGSLTMSSSGSLQASPRGLLPGLLPAPADKLTPKGPGQVPTATSALSLELQEVEPLGLPQASPSRTRSPDVISSASTALSQDIPEIASEALSRGFGSSAPEGLEPDSMASAASALHLLSPRPRPGPELGPQLGLDGGPGDGDRHNTPSLLEAALTQEASTPDSQVWPTAPDITRETCSTLAESPRNGLQEKHKSLAFHRPPYHLLQQRDSQDASAEQSDHDDEVASLASASGGFGTKVPAPRLPAKDWKTKGSPRTSPKLKRKSKKDDGDAAMGSRLTEHQVAEPPEDWPALIWQQQRELAELRHSQEELLQRLCTQLEGLQSTVTGHVERALETRHEQEQRRLERALAEGQQRGGQLQEQLTQQLSQALSSAVAGRLERSIRDEIKKTVPPCVSRSLEPMAGQLSNSVATKLTAVEGSMKENISKLLKSKNLTDAIARAAADTLQGPMQAAYREAFQSVVLPAFEKSCQAMFQQINDSFRLGTQEYLQQLESHMKSRKAREQEAREPVLAQLRGLVSTLQSATEQMAATVAGSVRAEVQHQLHVAVGSLQESILAQVQRIVKGEVSVALKEQQAAVTSSIMQAMRSAAGTPVPSAHLDCQAQQAHILQLLQQGHLNQAFQQALTAADLNLVLYVCETVDPAQVFGQPPCPLSQPVLLSLIQQLASDLGTRTDLKLSYLEEAVMHLDHSDPITRDHMGSVMAQVRQKLFQFLQAEPHNSLGKAARRLSLMLHGLVTPSLP
modifications: biotinylated by BioID2 in the cells (sites not given)
With B1, the binding result was “binds”.
